In paper PMC13446905:
Results are given in words; binding and its absence hold for the method and conditions named. Binding seen in cells or lysates may run through a third protein. Some binding calls cover weakened binding; strength is not graded here. For part of these data: Sequences can lack the tags named with a protein. One block for each molecule: values may come before it.

The chains behind the UniProt entries cited, without tags or fusion partners.
UniProt Q5S007: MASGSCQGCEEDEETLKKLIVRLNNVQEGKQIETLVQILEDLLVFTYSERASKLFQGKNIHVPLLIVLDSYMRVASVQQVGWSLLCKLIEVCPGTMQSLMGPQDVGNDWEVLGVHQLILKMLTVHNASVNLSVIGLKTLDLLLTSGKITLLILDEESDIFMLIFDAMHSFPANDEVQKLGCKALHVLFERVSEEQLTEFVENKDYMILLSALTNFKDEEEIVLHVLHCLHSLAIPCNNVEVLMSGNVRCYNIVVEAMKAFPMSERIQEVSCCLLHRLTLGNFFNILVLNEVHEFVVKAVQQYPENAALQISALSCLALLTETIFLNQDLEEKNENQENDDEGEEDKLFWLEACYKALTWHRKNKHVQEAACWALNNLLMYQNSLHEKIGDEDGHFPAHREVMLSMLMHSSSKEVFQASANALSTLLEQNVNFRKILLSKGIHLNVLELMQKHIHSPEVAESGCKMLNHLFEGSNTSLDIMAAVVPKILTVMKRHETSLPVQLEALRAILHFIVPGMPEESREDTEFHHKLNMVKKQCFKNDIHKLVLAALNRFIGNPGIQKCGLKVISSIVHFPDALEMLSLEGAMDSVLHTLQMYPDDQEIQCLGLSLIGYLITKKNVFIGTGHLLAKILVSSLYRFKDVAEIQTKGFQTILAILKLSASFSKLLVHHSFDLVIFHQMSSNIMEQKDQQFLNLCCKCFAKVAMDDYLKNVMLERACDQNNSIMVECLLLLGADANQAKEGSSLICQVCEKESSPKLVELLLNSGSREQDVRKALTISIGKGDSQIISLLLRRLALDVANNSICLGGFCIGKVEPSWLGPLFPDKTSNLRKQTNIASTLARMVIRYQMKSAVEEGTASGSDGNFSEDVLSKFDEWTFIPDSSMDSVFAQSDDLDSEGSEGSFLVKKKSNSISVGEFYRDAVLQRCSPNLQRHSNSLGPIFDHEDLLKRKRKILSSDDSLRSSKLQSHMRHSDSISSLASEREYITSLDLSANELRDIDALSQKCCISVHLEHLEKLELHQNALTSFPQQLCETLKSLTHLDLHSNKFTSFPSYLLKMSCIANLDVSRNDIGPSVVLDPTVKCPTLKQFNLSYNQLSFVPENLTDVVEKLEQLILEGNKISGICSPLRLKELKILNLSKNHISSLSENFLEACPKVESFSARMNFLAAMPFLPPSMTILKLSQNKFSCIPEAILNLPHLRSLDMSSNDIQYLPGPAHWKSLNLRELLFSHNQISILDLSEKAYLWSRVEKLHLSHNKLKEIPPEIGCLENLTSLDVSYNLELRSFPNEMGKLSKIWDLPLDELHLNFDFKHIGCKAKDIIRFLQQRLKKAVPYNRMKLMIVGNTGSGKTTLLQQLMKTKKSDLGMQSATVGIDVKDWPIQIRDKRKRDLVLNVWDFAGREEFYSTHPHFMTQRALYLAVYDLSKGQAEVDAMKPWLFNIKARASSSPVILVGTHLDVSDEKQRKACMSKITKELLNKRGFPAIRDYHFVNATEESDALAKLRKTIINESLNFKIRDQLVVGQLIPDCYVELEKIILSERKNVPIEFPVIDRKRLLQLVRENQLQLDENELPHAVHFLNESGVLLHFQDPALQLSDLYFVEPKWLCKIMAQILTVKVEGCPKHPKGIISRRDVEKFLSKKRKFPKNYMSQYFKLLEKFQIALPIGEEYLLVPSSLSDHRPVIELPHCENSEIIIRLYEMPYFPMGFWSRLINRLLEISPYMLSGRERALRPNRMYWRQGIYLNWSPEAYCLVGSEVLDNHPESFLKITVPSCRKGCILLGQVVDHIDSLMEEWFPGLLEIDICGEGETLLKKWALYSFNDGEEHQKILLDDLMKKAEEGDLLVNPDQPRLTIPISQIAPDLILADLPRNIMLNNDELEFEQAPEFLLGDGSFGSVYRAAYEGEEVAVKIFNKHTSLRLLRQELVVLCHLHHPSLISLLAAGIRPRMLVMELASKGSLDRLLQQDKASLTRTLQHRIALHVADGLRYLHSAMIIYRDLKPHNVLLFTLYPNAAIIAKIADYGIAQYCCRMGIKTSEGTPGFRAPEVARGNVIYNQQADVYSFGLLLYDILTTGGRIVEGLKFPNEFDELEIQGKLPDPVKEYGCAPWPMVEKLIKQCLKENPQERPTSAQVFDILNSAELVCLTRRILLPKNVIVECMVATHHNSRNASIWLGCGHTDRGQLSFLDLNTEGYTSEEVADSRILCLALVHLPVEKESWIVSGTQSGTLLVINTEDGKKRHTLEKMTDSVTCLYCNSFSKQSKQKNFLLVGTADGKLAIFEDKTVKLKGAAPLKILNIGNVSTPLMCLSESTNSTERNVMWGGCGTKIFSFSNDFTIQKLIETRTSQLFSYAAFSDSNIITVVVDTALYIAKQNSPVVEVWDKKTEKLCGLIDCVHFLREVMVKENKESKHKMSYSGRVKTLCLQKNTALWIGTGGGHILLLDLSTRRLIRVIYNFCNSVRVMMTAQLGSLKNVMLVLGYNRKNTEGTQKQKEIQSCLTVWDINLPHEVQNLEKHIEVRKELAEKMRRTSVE

Tests used:
[1] = biological target: T1, YFP-drebrin full-length (human) (UniProt Q16643); test: co-IP; HEK293T co-expressing 3xFlag-LRRK2 and YFP-drebrin constructs; drebrin constructs immunoprecipitated with GFP-trap resin, co-precipitated LRRK2 detected by anti-Flag western blot
T1 sequence: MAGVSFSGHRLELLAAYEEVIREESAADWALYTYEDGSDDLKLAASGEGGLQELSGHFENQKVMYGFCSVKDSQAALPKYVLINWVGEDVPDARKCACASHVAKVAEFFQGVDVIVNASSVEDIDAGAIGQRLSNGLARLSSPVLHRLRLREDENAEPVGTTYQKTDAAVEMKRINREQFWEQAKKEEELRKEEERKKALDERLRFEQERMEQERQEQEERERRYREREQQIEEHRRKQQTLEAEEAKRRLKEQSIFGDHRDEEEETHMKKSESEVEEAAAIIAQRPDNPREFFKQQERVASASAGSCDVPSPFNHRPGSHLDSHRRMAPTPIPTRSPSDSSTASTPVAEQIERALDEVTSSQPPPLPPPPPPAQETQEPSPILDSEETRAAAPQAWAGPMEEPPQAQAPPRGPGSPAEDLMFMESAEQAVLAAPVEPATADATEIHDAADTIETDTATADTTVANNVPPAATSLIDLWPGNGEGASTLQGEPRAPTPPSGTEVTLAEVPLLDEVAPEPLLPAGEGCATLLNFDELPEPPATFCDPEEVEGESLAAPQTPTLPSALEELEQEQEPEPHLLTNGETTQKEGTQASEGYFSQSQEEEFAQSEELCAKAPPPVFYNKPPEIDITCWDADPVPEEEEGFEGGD

[2] = biological target: T2, YFP-drebrin N-terminal domain (1-256 aa) (human) (UniProt Q16643); test: as above
T2 sequence: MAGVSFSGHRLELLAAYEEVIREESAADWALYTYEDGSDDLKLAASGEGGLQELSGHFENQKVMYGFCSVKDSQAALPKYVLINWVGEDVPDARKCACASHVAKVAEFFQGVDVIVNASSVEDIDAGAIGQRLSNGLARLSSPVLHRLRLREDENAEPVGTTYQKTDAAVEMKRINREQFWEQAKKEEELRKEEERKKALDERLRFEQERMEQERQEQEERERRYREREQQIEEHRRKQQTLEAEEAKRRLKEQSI

GFP-LRRK2 wild-type = GFP-LRRK2 wild-type (UniProt Q5S007); test: co-IP; GFP-trap purification of GFP-LRRK2 from RA-differentiated SH-SY5Y lysates (same samples as for MS), unstimulated or with BDNF 15 min; also from mixes of GFP-LRRK2 OE and naive SH-SY5Y lysates at ratios 4:0 to 0:4; western blot for endogenous drebrin

binding [1]: binds
binding [2]: binds
Molecule: 3xFlag-LRRK2 (from UniProt Q5S007 1-2527)

binding (GFP-LRRK2 wild-type): binds
B1: drebrin (protein, UniProt Q16643 1-649)
chain: T1 sequence
